Assay results: US11497751B2, “Modulators of Rho-associated protein kinase” (Redx Pharma PLC, priority 2018, dated 2022)

Sequences of proteins named here, by UniProt entry; tags and fusion partners are left off. Residues count along the entry.
UniProt O75116, 11-552 limits assumed: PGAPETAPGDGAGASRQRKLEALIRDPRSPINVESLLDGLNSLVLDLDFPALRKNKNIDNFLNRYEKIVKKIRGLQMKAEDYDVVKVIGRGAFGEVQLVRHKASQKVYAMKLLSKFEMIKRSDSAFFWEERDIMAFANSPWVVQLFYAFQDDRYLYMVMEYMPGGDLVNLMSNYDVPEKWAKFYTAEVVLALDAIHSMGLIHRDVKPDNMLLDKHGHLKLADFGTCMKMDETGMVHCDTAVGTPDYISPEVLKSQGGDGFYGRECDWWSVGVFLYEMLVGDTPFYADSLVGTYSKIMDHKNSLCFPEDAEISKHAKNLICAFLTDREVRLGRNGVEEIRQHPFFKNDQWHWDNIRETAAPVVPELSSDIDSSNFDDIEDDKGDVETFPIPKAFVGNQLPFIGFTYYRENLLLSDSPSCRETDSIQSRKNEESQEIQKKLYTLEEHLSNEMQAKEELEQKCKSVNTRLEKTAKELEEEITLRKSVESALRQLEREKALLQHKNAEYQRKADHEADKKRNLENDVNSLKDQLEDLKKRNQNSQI

target: N-terminal 6His-tagged ROCK2 catalytic domain 11-552 (Homo sapiens, UniProt O75116); assay: ROCK2 binding activity: ROCK2 inhibition, ADP-Glo Kinase Assay; details: read-out: ADP-Glo kinase activity assay ROCK2 Category; 1.25 nM ROCK2, 100 μM long S6 peptide, 20 μM ATP; 1 hour pre-incubation
Description: Assay for ROCK2 inhibition was performed using the protein construct N-terminal 6His-tagged ROCK2 catalytic domain 11-552 (Dundee University, UK). Protein was purified from a baculovirus expression system. Long S6 peptide ([…]) was used as substrate. Kinase reactions were carried out in 15 μl volume in a 96-well plate (black, half area) using 1.25 nM constitutively active ROCK2 kinase, 100 μM long S6 peptide, 20 μM ATP and test compound in DMSO (or DMSO only for controls). The final concentration of DMSO was 1%. Assay buffer was 50 mM HEPES pH 7.5 supplemented with 0.2 mM EDTA, 10 mM magnesium acetate, 0.01% Tween-20, 1 mM DTT and 0.01% BSA. Test compounds were pre-incubated with ROCK2 kinase for 1 hour before addition of ATP and long S6 peptide. After incubation for a further 1 hour, the amount of ADP produced was measured using ADP-Glo Kinase Assay (Promega) as per manufacturer's instructions. The luminescence was measured on a PHERAstar FS (BMG Labtech). The concentration of test compound required to inhibit ADP production by 50% (the IC50) was calculated using a four-parameter logistic function with software by Dotmatics.
The category “+” refers to compounds with a ROCK2 IC50 value of >10 μM. The category “++” refers to compounds with a ROCK2 IC50 value of 10 to 3 μM. The category “+++” refers to compounds with a ROCK2 IC50 value of 3 to 0.3 μM. The category “++++” refers to compounds with a ROCK2 IC50 value of <0.3 μM.

SMILES | IC50 [µM]
Cc1c[nH]c(-c2ccc(-c3nc(Nc4ccc5[nH]ncc5c4C4CC4)n(C)n3)cc2)n1 | < 0.3
Cn1cc(-c2ccc(-c3nc(Nc4ccc5[nH]ncc5c4C4CC4)n(C)n3)cc2)cn1 | < 0.3
Cn1nccc1-c1ccc(-c2nc(Nc3ccc4[nH]ncc4c3C3CC3)n(C)n2)cc1 | < 0.3

Second part, the compound after the results:

IC50 [µM] | SMILES
< 0.3 | CCc1cc(-c2ccc(-c3nc(Nc4ccc5[nH]ncc5c4C4CC4)n(C)n3)cc2)n[nH]1
< 0.3 | Cn1ccc(-c2ccc(-c3nc(Nc4ccc5[nH]ncc5c4C4CC4)n(C)n3)cc2)n1

The structures given here were assigned with low confidence; some may be wrong.
